This passage reports cyclisation yield results from patent US11192888B2 (priority 2017, dated 2021).

This series in a line: general procedure: peptide synthesis; 2-chlorotrityl chloride polystyrene resin. Particulars: cyclisation step.

In turn, “Cyclo(D-Ala-D-Thiazole-L-Trp-L-Trp-Gly-D-Ala-Dha-Sar)” registered a cyclisation yield of 7% yield. “Cyclo[D-Ala-Thz-Trp-Trp(4,5-C1)-Gly-D-Ala-Dha-Sar]” displayed a cyclisation yield (on crude linear peptide) of 2%. On the same count and under the same terms, for “Cyclo[D-Ala-Thz-Trp-Trp(4-Br)-Gly-D-Ala-Dha-Sar]” the value was 7%; for “Cyclo[D-Ala-Thz-Trp-Trp(4-Br)-Gly-D-Ala-Dhb-Sar]”, 35%; for “Cyclo[D-Ala-Thz-Trp-Trp(4-Br)-Gly-D-Ala-Dhl-Sar]”, 35%. The same measure, in the same setting: next, “Cyclo[D-Ala-Thz-Trp-Trp(4-Br)-Gly-D-Ala-Dhp-Sar]”: 35%; “Cyclo[D-Ala-Thz-Trp-Trp(4-Br)-Gly-D-Ala-Dhv-Sar]”: 42%; “Cyclo[D-Ala-Thz-Trp-Trp(4-C1)-Gly-D-Ala-Dha-Sar]”: 5%. Same read-out and setting: for “Cyclo[D-Ala-Thz-Trp-Trp(4-CF3)-Gly-D-Ala-Dha-Sar]” the value was 6%; for “Cyclo[D-Ala-Thz-Trp-Trp(4-Cl)-Gly-D-Ala-Dhb-Sar]”, 5%; for “Cyclo[D-Ala-Thz-Trp-Trp(4-Cl)-Gly-D-Ala-Thr-Sar]”, 14%. Turning to “Cyclo[D-Ala-Thz-Trp-Trp(4-F)-Gly-D-Ala-Dha-Sar]”, the cyclisation yield (on crude linear peptide) came to 2%. “Cyclo[D-Ala-Thz-Trp-Trp(4-MeO)-Gly-D-Ala-Dha-Sar]”: for the setting “on crude linear peptide”, the cyclisation yield came out at 11%.

Substance “Cyclo[D-Ser(OMe)-Thz-Trp-Trp(4-Br)-Gly-D-Ala-Dha-Sar]” returned a cyclisation yield (on crude linear peptide) of 6%.

Where the note is “on crude linear peptide”, “Cyclo[D-Ser(OMe)-Thz-Trp-Trp(4-Br)-Gly-D-Ala-Dhb-Sar]” displayed a cyclisation yield of 19%.

For the substance “Cyclo[D-Ser-Thz-Trp-Trp(4-C1)-Gly-D-Ala-Dha-Sar]”, where the note is “on crude linear peptide”, the cyclisation yield amounted to 4%.
